# Test results published in publication PMC12811241.
# Chains of the proteins cited; added tags and fusions are not shown.
# UniProt Q9UHP3: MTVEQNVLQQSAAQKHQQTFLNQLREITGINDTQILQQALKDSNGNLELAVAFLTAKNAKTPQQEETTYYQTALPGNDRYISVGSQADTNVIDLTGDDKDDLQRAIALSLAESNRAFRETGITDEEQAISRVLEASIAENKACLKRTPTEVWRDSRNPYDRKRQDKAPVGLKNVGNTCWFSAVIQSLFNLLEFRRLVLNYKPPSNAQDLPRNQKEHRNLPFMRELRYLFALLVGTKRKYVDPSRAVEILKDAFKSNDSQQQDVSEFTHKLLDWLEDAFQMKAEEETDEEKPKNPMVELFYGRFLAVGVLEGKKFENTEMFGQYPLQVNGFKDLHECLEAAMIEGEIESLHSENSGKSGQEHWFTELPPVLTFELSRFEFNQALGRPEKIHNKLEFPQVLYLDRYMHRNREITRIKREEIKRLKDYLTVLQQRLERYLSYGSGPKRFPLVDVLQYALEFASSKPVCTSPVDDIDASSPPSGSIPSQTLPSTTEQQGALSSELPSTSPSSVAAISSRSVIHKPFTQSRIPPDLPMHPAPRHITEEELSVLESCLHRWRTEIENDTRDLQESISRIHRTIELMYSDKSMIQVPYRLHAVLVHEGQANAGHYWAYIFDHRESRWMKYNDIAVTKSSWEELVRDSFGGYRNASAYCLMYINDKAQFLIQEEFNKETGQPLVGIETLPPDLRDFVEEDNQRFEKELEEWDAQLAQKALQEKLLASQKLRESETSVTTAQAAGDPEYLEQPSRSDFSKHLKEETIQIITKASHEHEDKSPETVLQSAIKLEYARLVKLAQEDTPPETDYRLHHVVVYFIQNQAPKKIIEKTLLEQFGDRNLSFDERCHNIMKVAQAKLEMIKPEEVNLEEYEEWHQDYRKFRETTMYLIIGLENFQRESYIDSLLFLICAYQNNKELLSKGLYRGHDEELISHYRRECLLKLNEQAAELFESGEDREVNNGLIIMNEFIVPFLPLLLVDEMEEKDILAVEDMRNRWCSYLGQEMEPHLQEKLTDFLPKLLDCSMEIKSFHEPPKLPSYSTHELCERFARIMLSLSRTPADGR
# These are yes or no findings as the source states them, for the method shown. In cells and extracts the contact can be indirect. Some entries that bind do so weakly or less than the wild type.
# T1: TAB2 (human (endogenous in HNSCC cells)) (UniProt Q9NYJ8)
# T1 sequence: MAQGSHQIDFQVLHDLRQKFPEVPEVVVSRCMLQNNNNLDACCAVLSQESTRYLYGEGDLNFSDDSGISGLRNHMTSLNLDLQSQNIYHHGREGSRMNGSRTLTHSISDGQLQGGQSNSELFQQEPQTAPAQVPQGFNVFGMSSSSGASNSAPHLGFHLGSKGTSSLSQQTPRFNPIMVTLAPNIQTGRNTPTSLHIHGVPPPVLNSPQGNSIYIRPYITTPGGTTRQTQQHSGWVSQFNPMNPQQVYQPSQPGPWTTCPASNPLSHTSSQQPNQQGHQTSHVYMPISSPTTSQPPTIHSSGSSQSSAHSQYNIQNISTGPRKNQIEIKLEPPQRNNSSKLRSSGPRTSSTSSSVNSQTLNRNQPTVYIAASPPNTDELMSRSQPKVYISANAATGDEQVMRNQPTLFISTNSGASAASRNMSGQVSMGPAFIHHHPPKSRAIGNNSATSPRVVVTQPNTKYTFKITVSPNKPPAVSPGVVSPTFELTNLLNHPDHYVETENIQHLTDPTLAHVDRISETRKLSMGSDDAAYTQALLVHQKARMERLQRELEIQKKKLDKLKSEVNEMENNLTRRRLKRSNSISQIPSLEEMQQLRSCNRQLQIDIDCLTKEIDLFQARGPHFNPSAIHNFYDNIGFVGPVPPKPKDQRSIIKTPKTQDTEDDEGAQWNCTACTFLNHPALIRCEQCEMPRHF
# How the values were obtained:
# [1] = target: T1, TAB2 (human (endogenous in HNSCC cells)); experiment: co-IP; HNSCC cell lysates incubated with anti-USP25 antibody (or anti-TAB2 antibody, Fig. 6B) or IgG, washed with lysis buffer, bead-bound proteins immunoblotted; endogenous proteins
# [2] = target: ubiquitin specific peptidase 25 (USP25) (human (endogenous in HNSCC cells)) (UniProt Q9UHP3); experiment: as above
Molecule,binding [1],binding [2]
"TAB2 (protein, UniProt Q9NYJ8 1-693) MAQGSHQIDFQVLHDLRQKFPEVPEVVVSRCMLQNNNNLDACCAVLSQESTRYLYGEGDLNFSDDSGISGLRNHMTSLNLDLQSQNIYHHGREGSRMNGSRTLTHSISDGQLQGGQSNSELFQQEPQTAPAQVPQGFNVFGMSSSSGASNSAPHLGFHLGSKGTSSLSQQTPRFNPIMVTLAPNIQTGRNTPTSLHIHGVPPPVLNSPQGNSIYIRPYITTPGGTTRQTQQHSGWVSQFNPMNPQQVYQPSQPGPWTTCPASNPLSHTSSQQPNQQGHQTSHVYMPISSPTTSQPPTIHSSGSSQSSAHSQYNIQNISTGPRKNQIEIKLEPPQRNNSSKLRSSGPRTSSTSSSVNSQTLNRNQPTVYIAASPPNTDELMSRSQPKVYISANAATGDEQVMRNQPTLFISTNSGASAASRNMSGQVSMGPAFIHHHPPKSRAIGNNSATSPRVVVTQPNTKYTFKITVSPNKPPAVSPGVVSPTFELTNLLNHPDHYVETENIQHLTDPTLAHVDRISETRKLSMGSDDAAYTQALLVHQKARMERLQRELEIQKKKLDKLKSEVNEMENNLTRRRLKRSNSISQIPSLEEMQQLRSCNRQLQIDIDCLTKEIDLFQARGPHFNPSAIHNFYDNIGFVGPVPPKPKDQRSIIKTPKTQDTEDDEGAQWNCTACTFLNHPALIRCEQCEMPRHF",–,binds
"TAB3 (protein, UniProt Q8N5C8 1-712) MAQSSPQLDIQVLHDLRQRFPEIPEGVVSQCMLQNNNNLEACCRALSQESSKYLYMEYHSPDDNRMNRNRLLHINLGIHSPSSYHPGDGAQLNGGRTLVHSSSDGHIDPQHAAGKQLICLVQEPHSAPAVVAATPNYNPFFMNEQNRSAATPPSQPPQQPSSMQTGMNPSAMQGPSPPPPPPSYMHIPRYSTNPITVTVSQNLPSGQTVPRALQILPQIPSNLYGSPGSIYIRQTSQSSSGRQTPQSTPWQSSPQGPVPHYSQRPLPVYPHQQNYQPSQYSPKQQQIPQSAYHSPPPSQCPSPFSSPQHQVQPSQLGHIFMPPSPSTTPPHPYQQGPPSYQKQGSHSVAYLPYTASSLSKGSMKKIEITVEPSQRPGTAINRSPSPISNQPSPRNQHSLYTATTPPSSSPSRGISSQPKPPFSVNPVYITYTQPTGPSCTPSPSPRVIPNPTTVFKITVGRATTENLLNLVDQEERSAAPEPIQPISVIPGSGGEKGSHKYQRSSSSGSDDYAYTQALLLHQRARMERLAKQLKLEKEELERLKSEVNGMEHDLMQRRLRRVSCTTAIPTPEEMTRLRSMNRQLQINVDCTLKEVDLLQSRGNFDPKAMNNFYDNIEPGPVVPPKPSKKDSSDPCTIERKARRISVTSKVQADIHDTQAAAADEHRTGSTQSPRTQPRDEDYEGAPWNCDSCTFLNHPALNRCEQCEMPRYT",–,no binding

# The next lines start with the values.
binding [1],binding [2],Molecule
binds,–,ubiquitin specific peptidase 25 (USP25) (from UniProt Q9UHP3 1-1055) (enzyme)
–,no binding,"TAK1 (protein, UniProt O43318 1-606) MSTASAASSSSSSSAGEMIEAPSQVLNFEEIDYKEIEVEEVVGRGAFGVVCKAKWRAKDVAIKQIESESERKAFIVELRQLSRVNHPNIVKLYGACLNPVCLVMEYAEGGSLYNVLHGAEPLPYYTAAHAMSWCLQCSQGVAYLHSMQPKALIHRDLKPPNLLLVAGGTVLKICDFGTACDIQTHMTNNKGSAAWMAPEVFEGSNYSEKCDVFSWGIILWEVITRRKPFDEIGGPAFRIMWAVHNGTRPPLIKNLPKPIESLMTRCWSKDPSQRPSMEEIVKIMTHLMRYFPGADEPLQYPCQYSDEGQSNSATSTGSFMDIASTNTSNKSDTNMEQVPATNDTIKRLESKLLKNQAKQQSESGRLSLGASRGSSVESLPPTSEGKRMSADMSEIEARIAATTAYSKPKRGHRKTASFGNILDVPEIVISGNGQPRRRSIQDLTVTGTEPGQVSSRSSSPSVRMITTSGPTSEKPTRSHPWTPDDSTDTNGSDNSIPMAYLTLDHQLQPLAPCPNSKESMAVFEQHCKMAQEYMKVQTEIALLLQRKQELVAELDQDEKDQQNTSRLVQEHKKLLDENKSLSTYYQQCKKQLEVIRSQQQKRQGTS"
